Experimental data published in patent US20220402981A1.
No constants are given. Whether binding was seen depends on the method and setting. Some results given as binding are weak or reduced against the parent protein; the word gives no strength.

Chains of the proteins cited; added tags and fusions are not shown. Lines headed by an entry give the natural chain unless they say otherwise; changes in a name come on top.
UniProt Q14498: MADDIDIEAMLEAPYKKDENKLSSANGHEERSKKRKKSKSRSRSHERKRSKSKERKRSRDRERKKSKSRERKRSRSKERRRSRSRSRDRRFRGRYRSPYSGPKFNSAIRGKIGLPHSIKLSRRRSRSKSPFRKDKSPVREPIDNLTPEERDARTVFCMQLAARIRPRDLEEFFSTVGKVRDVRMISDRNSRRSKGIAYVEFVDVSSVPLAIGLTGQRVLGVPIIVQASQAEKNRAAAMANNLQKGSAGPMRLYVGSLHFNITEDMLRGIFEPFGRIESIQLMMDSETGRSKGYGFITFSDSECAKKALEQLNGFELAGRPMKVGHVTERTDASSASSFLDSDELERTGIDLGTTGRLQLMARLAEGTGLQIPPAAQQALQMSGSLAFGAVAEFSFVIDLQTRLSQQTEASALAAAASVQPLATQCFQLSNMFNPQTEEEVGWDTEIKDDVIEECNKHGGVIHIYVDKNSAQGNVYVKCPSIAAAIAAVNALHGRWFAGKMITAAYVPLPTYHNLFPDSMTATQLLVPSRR

Molecular target: BodipyFL-maleimide-labelled DCAF15-Spycatcher (UniProt Q66K64)
Test: TR-FRET with E7820 (FIG. 16); wild-type reference

binding: binds
Substance: biotinylated Strep II Avi-tagged RBM39RRM2 (from UniProt Q14498 245-332)
